This is an account of results in PubChem BioAssay AID2685 (National Center for Advancing Translational Sciences (NCATS), 2010).

A word on the AC50: it is the midpoint of the concentration-response curve, whichever way the signal moves. A low value points to greater potency.

This test is described as follows: qHTS Assay for Lipid Storage Modulators in Drosophila S3 Cells.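 For cell number change: cells counted by Cell Tracker Red CMTPX staining in the red channel.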 Particulars: BODIPY lipid droplet fluorescence, 18-24 h; for cell number change: measured here: cell count max response, cells fed with added oleic acid. In a few lines:
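Laser-scanning cytometry quantifies lipid droplet accumulation (500–530 nm total intensity; droplet/cell object ratio) in oleic acid-fed (400 uM added) Drosophila S3 cells treated with a concentration series. 20 uM Triacsin C defined 100% inhibition.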
On the technique in general: In qHTS, concentration-response curves come from the screen itself.

Where [1] appears, read: measured here: lipid fluorescence (Fed channel) AC50, cells fed with added oleic acid.
[2] abbreviates: measured here: cell number channel AC50, cells fed with added oleic acid.

Molecules are shown by their SMILES. Some of the results follow. Shown are side measurements of this screen, not its main read-out; they come without a call. The list favours compounds with an active or inconclusive main result. Words in brackets tell the shape of the fitted curve; partial curves, single points and poor fits give uncertain potencies.

For the compound `CCOc1ccc(C(=O)Nn2cnnc2)cc1`, the cell number change is -8.1%. The AC50 under setting [1] was 7.31 µM [falling, partial curve].
As to `O=C(Nc1ccc(F)cc1F)c1csc(-c2ccncc2)n1`, the cell number change came out at 10.5%. Besides, the AC50 under setting [1] is 3.26 µM [falling, full curve].
For `CC(C)(C)c1ccc(C(=O)N2CCN(c3ccc(N4CCOCC4)nn3)CC2)cc1`, the cell number change amounted to 39.2%. In addition, under setting [2], the half-maximal activity concentration (AC50) is 18.4 µM [rising, single point].
For the compound `S=C(NCc1ccccc1)NCc1ccco1`, the cell number change is -7.43%. Also, the AC50 under setting [1] is 6.51 µM [falling, single point].
`Cc1cc(C(=O)OCC(=O)c2ccccc2)c2ccccc2n1`: the cell number change was -21.9%.
For the compound `CC(C)(Oc1ccc(Cl)cc1)C(=O)OCC(=O)NCCc1ccc(S(N)(=O)=O)cc1`, the cell number change was -21.3%. Moreover, the concentration at half-maximal activity (AC50) under setting [1] was 4.11 µM [falling, full curve, poor fit].
On to `CC1(C)CC(=O)C(Sc2nnc(-c3ccc(NS(C)(=O)=O)cc3)n2Cc2ccco2)C(=O)C1`, for which the cell number change is 0.936%. In addition, the half-maximal activity concentration (AC50) under setting [1] was 0.116 µM [falling, full curve, poor fit].
With `Cc1cc(C(=O)CSc2nc3ccccc3n2C)c(C)n1C`, the cell number change was determined as 19%. For the same compound, the AC50 under setting [2] is 3.26 µM [rising, single point]. The AC50 under setting [1] was 7.31 µM [rising, single point].
For `CCCCC(=O)NC(=S)Nc1ccccc1N1CCCCC1`, the cell number change was 28.5%. Under setting [1], the concentration at half-maximal activity (AC50) is 18.4 µM [rising, single point].
As to `O=C(CCC(=O)N(CC(=O)NC1CCCC1)c1cccc(F)c1)Nc1nccs1`, the cell number change was determined as 915%. Under setting [2], the AC50 was 29.1 µM [rising, single point].
As to `COc1ccc(C(C)=O)cc1COC(=O)c1cccc(N(C)C)c1`, the cell number change was found to be 0.576%. Also, the AC50 under setting [1] is 0.517 µM [rising, full curve].
`Cc1cc(N)n(-c2ccccc2)n1`: the cell number change was -6.41%. Also, the AC50 under setting [1] is 0.411 µM [falling, full curve, poor fit].
With `CN=C(c1ccc(C)cc1)n1c(=S)nc(-c2ccc(C)cc2)n(C)c1=S`, the cell number change is -48.2%. In addition, under setting [2], the AC50 is 29.1 µM [falling, single point]. For the same compound, the concentration at half-maximal activity (AC50) under setting [1] is 18.4 µM [falling, single point].
On to `COc1ccc(N/N=C(/C#N)S(=O)(=O)c2nsc(C)c2C#N)cc1`, for which the AC50 is, setting by setting: under setting [2], 1.64 µM [rising, partial curve, poor fit]; under setting [1], 1.46 µM [rising, partial curve, poor fit].
For the compound `C=CCNC(=S)NNC(=O)c1ccc(=O)n(Cc2ccc(Cl)cc2Cl)c1`, the cell number change came to 19.8%. Also, the AC50 under setting [2] was 0.0058 µM [rising, full curve, poor fit]. Besides, the concentration at half-maximal activity (AC50) under setting [1] is 0.00461 µM [rising, full curve, poor fit].
As for `O=C(NC1CCN(Cc2ccc(F)cc2)CC1)c1ccccc1`, the cell number change turned out to be 3.42%. Besides, the AC50 under setting [1] was 2.59 µM [rising, full curve].
For the compound `CCCCNC(=O)c1onc(CSc2ccc(C)c(C)c2)c1C(=O)O`, the cell number change was 4.97%. Under setting [1], the AC50 is 6.51 µM [falling, single point].
As to `COc1cccc(OCc2cc(C(=O)N3CCN(C4CCCCC4)C(=O)C3)no2)c1`, the cell number change is -9.85%.
On the same count and under the same terms, next, `COc1ccc(OC)c(CCNC(=O)CN2C(=O)COc3ccc(S(=O)(=O)N4CCOCC4)cc32)c1`: -8.56%.
For the compound `CC(C)NC(=O)NNc1c(Cl)cncc1Cl`, the cell number change is -9.89%. Also, the AC50 under setting [1] is 6.51 µM [falling, single point].
Regarding `CCc1ccc(N=C2NC(=O)/C(=C/c3cc(OC)c(O)c(OC)c3)S2)cc1`, the cell number change is -84.2%. Also, the half-maximal activity concentration (AC50) under setting [1] was 23.1 µM [falling, single point].
Regarding `Cc1ccc(S(=O)(=O)Nc2ccncc2)c(C)c1`, the cell number change is 17%. The AC50 under setting [1] is 29.1 µM [falling, single point].
As for `Cn1c(=O)[nH]c(=O)c2c1nc(N1CCC(Cc3ccccc3)CC1)n2Cc1ccccc1`, the cell number change is -37.7%. Moreover, the AC50 under setting [2] is 9.2 µM [falling, partial curve, poor fit].
As to `Cc1nnc(NC(=O)C2CCCCC2)s1`, the cell number change was 6.42%. Also, the half-maximal activity concentration (AC50) under setting [1] was 0.651 µM [falling, single point].
For the compound `CCN(CC(=O)Nc1ccc(NC(C)=O)cc1)C(=O)c1cc(C)on1`, the cell number change is -16.7%. For the same compound, the AC50 under setting [2] is 3.26 µM [falling, partial curve, poor fit]. Also, under setting [1], the AC50 is 4.11 µM [falling, partial curve].
With `COc1cccc(C2(O)CCN(CC(=O)NCC3CC3)CC2)c1`, the cell number change was found to be 15.2%. The concentration at half-maximal activity (AC50) under setting [1] was 0.58 µM [falling, single point].
In the case of `O=C(c1ccco1)N1CCC(c2nc(-c3ccc(F)cc3)no2)CC1`, the cell number change was -152%. The concentration at half-maximal activity (AC50) under setting [2] was 18.4 µM [falling, partial curve]. Moreover, the half-maximal activity concentration (AC50) under setting [1] is 0.82 µM [falling, full curve, poor fit].
Regarding `COc1ccccc1/C=C\C(=O)NCC(=O)N/N=C(\C)Cc1ccccc1`, the cell number change is -7.9%. Also, the AC50 under setting [1] was 0.461 µM [falling, partial curve, poor fit].
For `CS(=O)(=O)c1ncc(Cl)c(C(=O)Nc2ccc(OC(F)F)cc2)n1`, under setting [1], the concentration at half-maximal activity (AC50) was 14.6 µM [falling, partial curve].
For the compound `CC1Cc2cc(S(=O)(=O)N3CCN(c4ccccc4F)CC3)ccc2N1C(=O)C1CC1` (configuration not stated), the cell number change worked out at 12.6%. In addition, the AC50 under setting [1] is 7.31 µM [falling, partial curve].
`CCc1nc2ccccc2n1Cc1ccccc1OC`: the cell number change worked out at 31.6%. Besides, the concentration at half-maximal activity (AC50) under setting [2] is 32.6 µM [rising, single point]. Moreover, the AC50 under setting [1] was 29.1 µM [falling, single point].
As to `O=C(N/N=C/C=N/NC(=O)c1ccco1)c1ccco1`, the cell number change was 3.24%. The AC50 under setting [1] was 4.61 µM [rising, partial curve].
Consider `CNC(=O)c1ccc(N(Cc2ccccc2C)S(C)(=O)=O)cc1`, for which the cell number change was determined as 8.41%. In addition, the AC50 under setting [1] was 4.11 µM [falling, single point].
As for `c1ccc(Cn2nnc3c(N4CCN(Cc5ccc6c(c5)OCO6)CC4)ncnc32)cc1`, the cell number change came out at 22.6%. For the same compound, under setting [1], the AC50 was 13 µM [rising, partial curve].
`CCNc1nnc(SCC(=O)c2c(N)n(C3CC3)c(=O)[nH]c2=O)s1`: the cell number change is -7.77%. Also, the AC50 under setting [1] was 18.4 µM [rising, partial curve].
Take `COc1ccc(C)cc1NC(=O)COC(=O)c1c(C)noc1C`: the cell number change came to 20.8%. Moreover, the AC50 under setting [2] was 1.64 µM [rising, partial curve, poor fit]. The AC50 under setting [1] is 3.26 µM [rising, partial curve].
For the compound `CCN1CCN(CC(=O)Nc2ccc(C)cc2C)C(=O)C1=O`, the cell number change is -19.2%. In addition, the concentration at half-maximal activity (AC50) under setting [2] is 0.411 µM [rising, full curve, poor fit].
